At least one compound was matched to its structure with a doubt left.
Assays:
telogen effluvium = details: treatments commonly used for AGA; cited from earlier work
[1] = system: bitemporal hair loss in female pattern hair loss; experiment: Oral minoxidil 0.25 mg daily in women with bitemporal recession in female pattern hair loss; type: in vivo, human
Monilethrix = experiment: Oral minoxidil in two cases of monilethrix
Protocol: Patient 6: A person presented with lifelong fragile, sparse, and thin hair. […] Comorbidities included Crohn's disease and impaired hearing. Their child and two sons had also been diagnosed with monilethrix and suffered from sparse and fragile hair. […] As the application of topical minoxidil could potentially accentuate breakage of fragile hairs, treatment was commenced with oral minoxidil 0.25 mg daily.
Patient 7: A person with fragile, thin and sparse hair since childhood secondary to monilethrix presented for assessment and treatment. […] As the application of topical minoxidil could potentially accentuate breakage of fragile hairs oral Minoxidil 0.25 mg daily was commenced.

[2] = system: chronic telogen effluvium; experiment: Once daily oral minoxidil in women with chronic telogen effluvium (CTE), hair shedding score and safety; details: the 5 women who described trichodynia at baseline
Protocol: The goals of this study were to review the use of oral minoxidil in CTE with respect to the response to hair shedding and safety. Hair shedding was assessed by patient self-reported Hair shedding Scores (HSS) using the visual analogue scale as described in Example 1 and FIG. 1. Hair Shedding Scores (HSS) were on the scale of 1 to 6 (6 being the highest level of hair shedding). Patients included in this study were women with a diagnosis of CTE based on >6 month history of increased telogen hair shedding, a HSS of 4-6, no visible mid frontal scalp hair loss (Sinclair stage 1) and no hair follicle miniaturization on scalp biopsy.
Data pertaining to dosage of oral minoxidil, previous treatments including topical minoxidil use, blood pressure, side effects, hypertrichosis and trichodynia were collected for each patient. […]
Data were analysed using Matlab R2014b statistical software. Hair shedding scores at baseline, 6 and 12 months were analysed using the Wilcoxon rank sum test for pair-wise comparisons. Differences in blood pressure at baseline and 6 months were also analysed using Wilcoxon rank sum test. Relationship between outcomes (HSS at six and 12 months) and individual patient specific variables including previous use of […], duration of disease, dosage and HSS at baseline were analysed using a generalised linear regression model.

[3] = system: chronic telogen effluvium; details: 5% topical minoxidil for men, 5% topical minoxidil with 50 mg of cyproterone acetate for women; CTE; cited from earlier work
[4] = system: androgenetic alopecia (male pattern hair loss); experiment: Pilot open study of oral minoxidil 0.25 mg once daily for 24 weeks in men with AGA; type: in vivo, human; details: six men, 0.25 mg daily, 3 point rating scale
Protocol: This study was a pilot, prospective, open, observational study conducted at the Sinclair Dermatology Clinic in Melbourne, Australia. Participants were dosed for 24 weeks. Treatment naïve men with Hamilton Norwood staged III vertex, IV or V were treated for 24 weeks with minoxidil 0.25 mg once daily. The primary efficacy endpoint was investigators' photographic assessment at week 24 and adverse events. Investigator photographic assessment was conducted by a single investigator grading the photographs using a 3 point rating scale, ranging from “decreased hair growth” to “increased hair growth,” centred at no change. Any reports of adverse events were collected at every visit.

[5] = Patient 9, at 6 weeks, with continued spironolactone 100 mg daily
[6] = Patient 7, oral 0.25 mg daily, three months

Compound | Efficacy in TE (telogen effluvium) | Bitemporal hair loss ([1]; Patient 8, review at 3 months) | Vertex hair density ([1]; Patient 8, review at 3 months) | Bitemporal regrowth [1, 5] | Mid-frontal hair density [1, 5] | Trichodynia ([1]; Patient 9, with continued spironolactone 100 mg daily) | Hair growth (Monilethrix; Patient 6, oral 0.25 mg daily, review after six months) | Hair density (Monilethrix; Patient 7, dose increased to 0.5 mg daily, review at 6 months) | Hair density (Monilethrix; [6]) | Hair shedding (Monilethrix; [6]) | Trichodynia [2] | Patients with a moderate response to treatment [3] [%] | Patients with an improvement [3] [%] | Global photographic assessment [4]
CC(C)C(=O)Nc1ccc([N+](=O)[O-])c(C(F)(F)F)c1 [flutamide] | do not work | – | – | – | – | – | – | – | – | – | – | – | – | –
Nc1cc(N2CCCCC2)nc(N)[n+]1[O-] [minoxidil] | – | noticeably improved | slightly improved | significant bitemporal regrowth | slight improvement | disappeared after 2 weeks | significant hair growth with reduced breakage and increased hair volume and length | significant improvement in hair density | remained unchanged | decreased significantly | improvement or resolution within 3 months | 25.2 | 55.2 | increase in the hair at the anterior and vertex scalp in all 6 patients

Source: US10226462B2, “Detection and treatment of excessive hair shedding” (Samson Clinical Pty Ltd, priority 2014, dated 2019)
